pKd: −log10 of the molar value. The exact form of at least one protein or probe is not confirmed. Tags and fusion partners may be left off the protein sequences shown.
Biological target: T1, APOBEC2 (Mus musculus) (UniProt Q9WV35)
T1 sequence (looked up, limits assumed): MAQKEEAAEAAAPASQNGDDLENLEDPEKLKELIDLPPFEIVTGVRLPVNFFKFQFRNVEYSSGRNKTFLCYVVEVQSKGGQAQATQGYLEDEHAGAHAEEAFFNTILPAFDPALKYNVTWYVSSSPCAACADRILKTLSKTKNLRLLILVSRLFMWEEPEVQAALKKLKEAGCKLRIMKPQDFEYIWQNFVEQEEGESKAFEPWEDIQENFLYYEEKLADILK
Assay: MST
Conditions: Cy5-APOBEC2 50 nM

GGCGGCGCGGCCCCGCCCCCTCCTCCGGC [SP/KLF motif ssDNA]
pKd: 6.60

— article doi:10.1101/2020.07.29.223594
